The text below walks through data of article PMC7862700.

Assay in all cases: DAPPL (digital affinity profiling via proximity ligation, sequencing)
Details in all cases: 10 mM Tris-HCl pH 7.5, 50 mM NaCl, 1 mM DTT, 4% glycerol, room temperature, 30 min; GST-TFs on glutathione beads, 16-mer random dsDNA library, 0.1% …; high values mean tight binding; double strand, one strand shown; scale: fold enrichment (6-mer frequency, TF over GST control)

The target of one experiment is T1, GABPA (UniProt Q06546).
T1 sequence: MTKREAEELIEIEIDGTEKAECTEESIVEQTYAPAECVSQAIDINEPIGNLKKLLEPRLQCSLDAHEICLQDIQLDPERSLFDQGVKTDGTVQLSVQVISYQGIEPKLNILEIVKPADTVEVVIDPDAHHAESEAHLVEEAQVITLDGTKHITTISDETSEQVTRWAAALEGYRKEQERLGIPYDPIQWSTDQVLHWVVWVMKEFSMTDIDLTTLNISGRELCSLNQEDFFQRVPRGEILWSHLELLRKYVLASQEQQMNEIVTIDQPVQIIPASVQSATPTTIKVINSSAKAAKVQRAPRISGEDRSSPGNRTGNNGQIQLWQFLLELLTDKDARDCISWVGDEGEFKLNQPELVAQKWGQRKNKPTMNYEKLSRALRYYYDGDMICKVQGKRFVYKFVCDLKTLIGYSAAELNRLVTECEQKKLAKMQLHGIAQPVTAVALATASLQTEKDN

A further experiment has as its target T2, ETS1 (UniProt P14921).
T2 sequence: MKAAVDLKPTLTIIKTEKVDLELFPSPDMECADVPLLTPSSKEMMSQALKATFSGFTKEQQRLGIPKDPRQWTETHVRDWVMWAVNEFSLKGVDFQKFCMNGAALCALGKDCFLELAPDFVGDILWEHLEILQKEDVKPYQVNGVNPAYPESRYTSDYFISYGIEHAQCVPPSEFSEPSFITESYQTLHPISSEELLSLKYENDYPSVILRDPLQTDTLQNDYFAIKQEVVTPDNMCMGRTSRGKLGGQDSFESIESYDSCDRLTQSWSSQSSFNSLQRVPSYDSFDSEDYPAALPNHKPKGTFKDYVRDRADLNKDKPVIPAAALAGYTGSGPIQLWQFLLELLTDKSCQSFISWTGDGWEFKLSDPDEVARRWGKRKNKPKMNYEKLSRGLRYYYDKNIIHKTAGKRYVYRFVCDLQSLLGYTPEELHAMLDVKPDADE

Another experiment addresses T3, SPDEF (UniProt O95238).
T3 sequence: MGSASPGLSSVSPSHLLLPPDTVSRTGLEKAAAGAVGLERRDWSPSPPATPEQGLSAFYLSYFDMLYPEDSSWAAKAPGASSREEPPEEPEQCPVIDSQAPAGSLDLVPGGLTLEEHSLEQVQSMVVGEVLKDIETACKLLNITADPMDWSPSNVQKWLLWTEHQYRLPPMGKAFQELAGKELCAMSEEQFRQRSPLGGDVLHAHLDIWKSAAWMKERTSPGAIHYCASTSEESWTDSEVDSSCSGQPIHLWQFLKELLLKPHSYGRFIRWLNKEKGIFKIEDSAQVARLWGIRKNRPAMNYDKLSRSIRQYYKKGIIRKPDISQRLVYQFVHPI

Only a part is listed here, and it is no random draw. For part of these data: At the low end of the ranking, values are background and their order means little. The list shows a part of the results. For part of these data: The exact form of the protein is not confirmed.

Take GATAAC: the binding signal with GABPA amounted to 0.979; with ETS1 it was 0.944; with SPDEF, 0.932.

In the case of CCCAGA, the binding signal with GABPA was 0.87; with ETS1, 0.871; with SPDEF, 0.858.

With GCCAAC, the figures for the binding signal with GABPA, in the experiment with ETS1 and in the experiment with SPDEF were 0.872, 0.955 and 0.835, respectively.

As for GAGAAA, the binding signal worked out at 0.789 with GABPA, 0.73 with ETS1 and 0.684 with SPDEF.

As for CATCAG, the binding signal is 0.977 with GABPA, 0.936 in the experiment with ETS1 and 0.925 with SPDEF.

Regarding GTGTTA, the values for the binding signal with GABPA, with ETS1 and with SPDEF were 0.949, 0.905 and 0.978, respectively.

Consider TCTCCT, for which the values for the binding signal with GABPA, with ETS1 and in the experiment with SPDEF were 1.53, 1.54 and 1.32, respectively.

As for GCAATT, the binding signal with GABPA is 1.14; with ETS1, 1.21; with SPDEF, 1.06.

In the case of AAAGTC, the binding signal was found to be 0.946 with GABPA, 0.989 in the experiment with ETS1 and 0.992 with SPDEF.

In the case of CATTAT, the binding signal was found to be 1.06 in the experiment with GABPA, 1.18 with ETS1 and 0.969 with SPDEF.

TAGTCA: the binding signal was found to be 0.93 in the experiment with GABPA, 0.84 in the experiment with ETS1 and 0.785 with SPDEF.

Consider ATACTC, for which the binding signal with GABPA is 1.48; in the experiment with ETS1, 1.27; with SPDEF, 1.32.

Turning to ACAGTT, the binding signal was 0.857 with GABPA, 0.865 with ETS1 and 0.861 with SPDEF.

GCACTG: the binding signal with GABPA is 1.14; with ETS1, 1.08; with SPDEF, 0.975.

Consider GATAAG, for which the binding signal came to 0.957 in the experiment with GABPA, 0.871 with ETS1 and 0.967 in the experiment with SPDEF.

On to GCCTGA, for which the binding signal with GABPA was 1.11; in the experiment with ETS1, 1.06; with SPDEF, 0.999.

As for GGCCTG, the binding signal in the experiment with GABPA is 0.906; with ETS1, 1.02; with SPDEF, 0.855.

Regarding GTTCAG, the binding signal with GABPA turned out to be 0.898; with ETS1, 0.85; with SPDEF, 0.944.

As to AGTACG, the figures for the binding signal with GABPA, with ETS1 and with SPDEF were 0.964, 0.907 and 0.865, respectively.

For the sequence TCTGCG, the values for the binding signal with GABPA, with ETS1 and in the experiment with SPDEF were 1.27, 1.29 and 1.21, respectively.

TTCAGA: the binding signal in the experiment with GABPA stood at 0.991; with ETS1 it was 0.993; in the experiment with SPDEF it was 1.01.

With TTGTGT, the binding signal in the experiment with GABPA worked out at 1.15; with ETS1, 1.19; with SPDEF it was 1.26.

Regarding GTTTTA, the values for the binding signal with GABPA, with ETS1 and with SPDEF were 1.14, 1.15 and 1.04, respectively.

Turning to GCAGCC, the binding signal with GABPA stood at 0.982; with ETS1 it was 1.02; in the experiment with SPDEF, 0.966.

In the case of AAGGTC, the binding signal amounted to 0.925 with GABPA, 0.925 with ETS1 and 0.996 in the experiment with SPDEF.

Consider CTGTGT, for which the binding signal in the experiment with GABPA came out at 0.796; with ETS1, 0.899; with SPDEF, 0.847.

On to ACCAAG, for which the figures for the binding signal in the experiment with GABPA, with ETS1 and with SPDEF were 0.895, 0.889 and 0.879, respectively.

For AGGGAT, the binding signal with GABPA came out at 0.838; in the experiment with ETS1 it was 0.773; with SPDEF, 0.812.

For GTTACC, the figures for the binding signal with GABPA, with ETS1 and with SPDEF were 1.05, 1.08 and 1.03, respectively.

For the sequence CGTTTA, the binding signal with GABPA stood at 1.13; with ETS1 it was 1.09; in the experiment with SPDEF, 1.14.

In the case of CAAGCT, the binding signal in the experiment with GABPA turned out to be 0.98; in the experiment with ETS1, 0.978; in the experiment with SPDEF, 0.93.

Consider TAATCG, for which the results for the binding signal with GABPA, with ETS1 and with SPDEF were 1.14, 1.03 and 1.05, respectively.

CTAAGG: the binding signal with GABPA was 0.971; in the experiment with ETS1, 1.01; with SPDEF, 0.972.

On to CTAGAA, for which the results for the binding signal with GABPA, in the experiment with ETS1 and with SPDEF were 1.05, 0.989 and 1.01, respectively.

Take TGGGAC: the values for the binding signal with GABPA, with ETS1 and with SPDEF were 0.925, 0.922 and 0.915, respectively.

Regarding CTCGGG, the binding signal is 0.909 with GABPA, 0.986 with ETS1 and 0.955 with SPDEF.

As for TAATGG, the binding signal with GABPA came to 1.24; with ETS1, 1.32; in the experiment with SPDEF it was 1.22.

As for ACCACA, the values for the binding signal in the experiment with GABPA, with ETS1 and with SPDEF were 0.983, 1.03 and 0.99, respectively.

As for GGGATT, the binding signal in the experiment with GABPA came out at 0.891; with ETS1 it was 0.861; in the experiment with SPDEF, 0.907.

For CCCGCG, the results for the binding signal with GABPA, in the experiment with ETS1 and with SPDEF were 0.946, 0.878 and 0.83, respectively.

For the sequence GCAGGT, the binding signal stood at 0.88 with GABPA, 0.842 in the experiment with ETS1 and 0.913 with SPDEF.

Take GAAAGT: the binding signal in the experiment with GABPA came to 0.896; in the experiment with ETS1 it was 0.828; in the experiment with SPDEF, 0.82.

Consider TTAGGA, for which the binding signal in the experiment with GABPA was determined as 0.901; with ETS1, 0.952; in the experiment with SPDEF it was 0.949.

Turning to AGATGG, the binding signal was determined as 0.904 with GABPA, 0.936 with ETS1 and 0.899 in the experiment with SPDEF.

TCGTCG: the figures for the binding signal in the experiment with GABPA, with ETS1 and in the experiment with SPDEF were 0.99, 0.962 and 0.902, respectively.

Regarding CGCACA, the figures for the binding signal with GABPA, with ETS1 and with SPDEF were 0.955, 0.962 and 0.97, respectively.

Take GCTGCT: the binding signal was 1.24 in the experiment with GABPA, 1.11 in the experiment with ETS1 and 1.21 with SPDEF.

As to AGGAAC, the binding signal with GABPA came to 0.94; with ETS1, 1.01; with SPDEF, 1.05.

As for TCGGCT, the values for the binding signal in the experiment with GABPA, with ETS1 and with SPDEF were 1.03, 0.951 and 0.861, respectively.

In the case of TTGGTT, the values for the binding signal in the experiment with GABPA, in the experiment with ETS1 and with SPDEF were 1.45, 1.49 and 1.45, respectively.

For the sequence AGAAGA, the binding signal turned out to be 0.939 with GABPA, 0.921 with ETS1 and 0.831 in the experiment with SPDEF.

Consider ACAGAA, for which the results for the binding signal with GABPA, with ETS1 and in the experiment with SPDEF were 0.997, 0.963 and 0.959, respectively.

GTCAAA: the binding signal in the experiment with GABPA amounted to 0.936; in the experiment with ETS1 it was 0.867; in the experiment with SPDEF, 0.832.

As for TAGGCA, the values for the binding signal with GABPA, in the experiment with ETS1 and in the experiment with SPDEF were 0.995, 0.931 and 0.955, respectively.

For GTAGAA, the results for the binding signal with GABPA, with ETS1 and with SPDEF were 0.865, 0.861 and 0.901, respectively.

Consider AGATCT, for which the figures for the binding signal with GABPA, in the experiment with ETS1 and with SPDEF were 0.922, 1.02 and 0.914, respectively.

In the case of ACATCG, the binding signal was 0.998 with GABPA, 1.05 with ETS1 and 1.08 with SPDEF.

Consider GCGACG, for which the binding signal with GABPA was 0.998; in the experiment with ETS1, 0.885; with SPDEF it was 0.784.

For the sequence TATCCC, the binding signal with GABPA worked out at 1.53; with ETS1 it was 1.6; in the experiment with SPDEF it was 1.72.

For the sequence AAGCCG, the figures for the binding signal with GABPA, with ETS1 and in the experiment with SPDEF were 0.974, 0.879 and 0.891, respectively.
